# Laboratory results from the supplement of paper PMC10849652.
# Protein sequences, listed by entry. Tags and fused reporters are not part of them. Lines headed by an entry give the natural chain unless they say otherwise; changes in a name come on top.
# UniProt P43246, whole entry, looked up: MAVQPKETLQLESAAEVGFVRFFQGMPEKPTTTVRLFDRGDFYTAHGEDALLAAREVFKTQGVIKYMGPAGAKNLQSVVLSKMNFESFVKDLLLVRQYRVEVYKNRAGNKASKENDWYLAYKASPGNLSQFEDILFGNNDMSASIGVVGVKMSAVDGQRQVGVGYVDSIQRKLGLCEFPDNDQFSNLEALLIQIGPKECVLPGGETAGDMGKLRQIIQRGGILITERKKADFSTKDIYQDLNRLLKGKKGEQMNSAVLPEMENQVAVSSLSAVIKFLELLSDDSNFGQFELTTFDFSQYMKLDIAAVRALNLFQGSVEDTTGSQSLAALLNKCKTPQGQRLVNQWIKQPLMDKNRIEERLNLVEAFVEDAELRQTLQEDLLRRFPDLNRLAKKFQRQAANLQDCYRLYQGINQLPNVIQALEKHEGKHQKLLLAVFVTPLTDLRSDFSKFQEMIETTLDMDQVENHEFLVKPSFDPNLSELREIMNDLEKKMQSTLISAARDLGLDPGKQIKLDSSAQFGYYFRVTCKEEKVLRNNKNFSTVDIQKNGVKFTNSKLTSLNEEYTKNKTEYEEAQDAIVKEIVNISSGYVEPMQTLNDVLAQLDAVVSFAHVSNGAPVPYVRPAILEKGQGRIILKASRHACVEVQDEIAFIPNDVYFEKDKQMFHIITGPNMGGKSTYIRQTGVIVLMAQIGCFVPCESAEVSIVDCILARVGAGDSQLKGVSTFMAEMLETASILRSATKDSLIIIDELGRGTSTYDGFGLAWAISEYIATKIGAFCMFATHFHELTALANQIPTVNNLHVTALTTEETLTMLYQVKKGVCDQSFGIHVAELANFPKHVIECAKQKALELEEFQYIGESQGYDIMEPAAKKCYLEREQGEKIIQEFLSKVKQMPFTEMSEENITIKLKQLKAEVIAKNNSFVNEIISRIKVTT
# UniProt Q9UGC7: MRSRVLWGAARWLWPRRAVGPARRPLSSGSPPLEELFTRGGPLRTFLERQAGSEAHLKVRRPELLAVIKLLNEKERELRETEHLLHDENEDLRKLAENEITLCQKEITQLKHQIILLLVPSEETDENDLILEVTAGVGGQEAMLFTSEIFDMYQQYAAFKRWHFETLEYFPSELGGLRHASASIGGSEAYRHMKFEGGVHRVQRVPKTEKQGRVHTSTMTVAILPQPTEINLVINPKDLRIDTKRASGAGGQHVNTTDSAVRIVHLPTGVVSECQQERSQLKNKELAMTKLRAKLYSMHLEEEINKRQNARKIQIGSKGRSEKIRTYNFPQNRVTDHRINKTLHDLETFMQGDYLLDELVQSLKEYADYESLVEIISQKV
# UniProt P03905, whole entry, looked up: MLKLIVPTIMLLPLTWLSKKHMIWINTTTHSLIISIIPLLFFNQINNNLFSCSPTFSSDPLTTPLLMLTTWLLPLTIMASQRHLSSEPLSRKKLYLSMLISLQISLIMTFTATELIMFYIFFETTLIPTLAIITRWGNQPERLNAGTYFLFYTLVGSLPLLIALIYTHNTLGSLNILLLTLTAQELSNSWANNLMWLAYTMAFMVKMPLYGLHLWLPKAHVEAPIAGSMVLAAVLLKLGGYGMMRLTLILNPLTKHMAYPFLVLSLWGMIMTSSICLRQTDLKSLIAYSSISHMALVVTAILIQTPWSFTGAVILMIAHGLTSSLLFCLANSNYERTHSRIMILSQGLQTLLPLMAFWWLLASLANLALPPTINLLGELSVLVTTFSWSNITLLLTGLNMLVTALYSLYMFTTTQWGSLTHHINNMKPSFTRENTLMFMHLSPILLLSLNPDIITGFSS
# UniProt Q9C0I1: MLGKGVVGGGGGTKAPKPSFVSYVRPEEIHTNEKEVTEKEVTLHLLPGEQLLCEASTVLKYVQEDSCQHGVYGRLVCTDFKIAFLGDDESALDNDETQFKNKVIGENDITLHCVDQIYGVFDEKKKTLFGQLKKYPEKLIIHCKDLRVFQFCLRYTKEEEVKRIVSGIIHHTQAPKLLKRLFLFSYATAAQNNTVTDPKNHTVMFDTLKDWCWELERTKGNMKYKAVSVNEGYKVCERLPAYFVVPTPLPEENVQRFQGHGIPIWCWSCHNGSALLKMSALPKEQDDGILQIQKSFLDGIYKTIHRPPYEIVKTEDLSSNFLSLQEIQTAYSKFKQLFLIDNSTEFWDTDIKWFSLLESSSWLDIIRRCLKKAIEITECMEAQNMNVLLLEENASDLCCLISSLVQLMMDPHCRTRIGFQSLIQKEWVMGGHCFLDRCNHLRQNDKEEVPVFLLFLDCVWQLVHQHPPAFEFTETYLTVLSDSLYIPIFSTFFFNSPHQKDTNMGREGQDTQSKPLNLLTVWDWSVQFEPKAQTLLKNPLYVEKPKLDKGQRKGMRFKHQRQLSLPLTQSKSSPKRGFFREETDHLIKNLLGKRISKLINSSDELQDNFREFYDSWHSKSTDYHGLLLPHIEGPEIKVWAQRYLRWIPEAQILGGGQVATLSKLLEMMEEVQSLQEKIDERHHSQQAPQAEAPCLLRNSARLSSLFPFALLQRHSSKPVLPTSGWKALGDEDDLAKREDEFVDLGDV
# UniProt Q9Y4B5: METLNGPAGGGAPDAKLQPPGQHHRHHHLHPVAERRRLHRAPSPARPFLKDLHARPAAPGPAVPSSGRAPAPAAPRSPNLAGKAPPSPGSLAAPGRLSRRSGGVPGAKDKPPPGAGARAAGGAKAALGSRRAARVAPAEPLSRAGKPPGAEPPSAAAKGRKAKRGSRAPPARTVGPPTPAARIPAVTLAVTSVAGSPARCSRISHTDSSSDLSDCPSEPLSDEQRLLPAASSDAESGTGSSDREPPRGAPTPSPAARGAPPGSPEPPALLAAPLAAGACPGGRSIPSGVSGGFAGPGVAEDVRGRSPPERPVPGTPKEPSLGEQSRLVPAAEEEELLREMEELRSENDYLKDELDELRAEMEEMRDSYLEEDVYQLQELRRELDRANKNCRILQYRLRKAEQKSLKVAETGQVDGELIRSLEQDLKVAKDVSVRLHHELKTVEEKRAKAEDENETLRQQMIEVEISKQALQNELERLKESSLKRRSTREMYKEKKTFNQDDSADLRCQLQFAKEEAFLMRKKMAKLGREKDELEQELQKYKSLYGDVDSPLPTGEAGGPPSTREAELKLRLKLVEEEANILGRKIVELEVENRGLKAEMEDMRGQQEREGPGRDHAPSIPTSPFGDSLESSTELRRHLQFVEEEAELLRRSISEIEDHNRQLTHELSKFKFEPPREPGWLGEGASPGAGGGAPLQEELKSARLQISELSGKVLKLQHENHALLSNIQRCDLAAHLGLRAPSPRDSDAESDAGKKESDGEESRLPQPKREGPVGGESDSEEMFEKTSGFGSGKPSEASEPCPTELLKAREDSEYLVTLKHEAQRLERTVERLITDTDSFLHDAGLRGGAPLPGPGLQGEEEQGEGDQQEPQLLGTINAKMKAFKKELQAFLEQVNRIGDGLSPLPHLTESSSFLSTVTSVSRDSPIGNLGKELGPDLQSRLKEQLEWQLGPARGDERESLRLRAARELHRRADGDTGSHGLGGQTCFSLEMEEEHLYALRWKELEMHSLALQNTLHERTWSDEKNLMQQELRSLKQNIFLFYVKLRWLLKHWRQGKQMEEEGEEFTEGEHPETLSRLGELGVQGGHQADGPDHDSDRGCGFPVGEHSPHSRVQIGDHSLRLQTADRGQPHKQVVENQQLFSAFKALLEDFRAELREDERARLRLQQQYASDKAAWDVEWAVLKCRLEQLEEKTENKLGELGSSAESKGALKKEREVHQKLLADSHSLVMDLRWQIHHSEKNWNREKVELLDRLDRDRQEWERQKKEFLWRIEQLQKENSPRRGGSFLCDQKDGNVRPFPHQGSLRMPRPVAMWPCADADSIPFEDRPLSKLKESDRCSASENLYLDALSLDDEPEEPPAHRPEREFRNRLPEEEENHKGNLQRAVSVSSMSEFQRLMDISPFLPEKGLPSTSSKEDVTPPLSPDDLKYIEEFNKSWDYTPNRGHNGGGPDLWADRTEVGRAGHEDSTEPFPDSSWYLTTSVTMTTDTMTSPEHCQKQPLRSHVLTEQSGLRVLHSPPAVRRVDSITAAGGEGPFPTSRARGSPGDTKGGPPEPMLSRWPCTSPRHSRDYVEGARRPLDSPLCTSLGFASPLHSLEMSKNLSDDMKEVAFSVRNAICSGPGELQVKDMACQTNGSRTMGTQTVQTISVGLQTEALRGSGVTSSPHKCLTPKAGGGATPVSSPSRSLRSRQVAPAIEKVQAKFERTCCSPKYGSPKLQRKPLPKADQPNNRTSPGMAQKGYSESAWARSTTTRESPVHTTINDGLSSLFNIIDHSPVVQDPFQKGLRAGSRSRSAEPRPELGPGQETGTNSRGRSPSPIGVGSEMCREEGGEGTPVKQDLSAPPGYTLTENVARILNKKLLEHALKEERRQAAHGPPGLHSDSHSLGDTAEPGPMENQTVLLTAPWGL
# UniProt O43196: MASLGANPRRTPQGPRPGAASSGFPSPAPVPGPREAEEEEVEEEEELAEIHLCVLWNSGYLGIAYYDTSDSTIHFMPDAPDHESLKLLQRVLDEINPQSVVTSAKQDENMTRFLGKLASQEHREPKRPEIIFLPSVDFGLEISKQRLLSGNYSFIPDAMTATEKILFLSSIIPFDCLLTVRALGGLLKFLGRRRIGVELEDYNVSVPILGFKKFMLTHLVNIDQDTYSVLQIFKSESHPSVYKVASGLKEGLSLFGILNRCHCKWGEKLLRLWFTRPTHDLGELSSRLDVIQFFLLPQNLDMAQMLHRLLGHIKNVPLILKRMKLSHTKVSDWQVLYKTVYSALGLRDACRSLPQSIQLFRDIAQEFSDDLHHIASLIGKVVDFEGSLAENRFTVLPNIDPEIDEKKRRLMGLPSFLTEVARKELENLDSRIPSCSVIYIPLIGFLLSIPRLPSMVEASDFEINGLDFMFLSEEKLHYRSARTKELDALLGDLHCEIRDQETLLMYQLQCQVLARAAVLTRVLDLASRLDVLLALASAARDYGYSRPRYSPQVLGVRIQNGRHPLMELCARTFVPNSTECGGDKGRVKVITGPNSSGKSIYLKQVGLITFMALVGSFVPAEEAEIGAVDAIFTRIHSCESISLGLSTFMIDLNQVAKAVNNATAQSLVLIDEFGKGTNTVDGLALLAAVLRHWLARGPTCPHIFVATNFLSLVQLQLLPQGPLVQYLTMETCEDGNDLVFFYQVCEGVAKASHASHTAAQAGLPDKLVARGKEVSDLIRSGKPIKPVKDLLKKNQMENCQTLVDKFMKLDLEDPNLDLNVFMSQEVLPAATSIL
# UniProt Q96HJ5: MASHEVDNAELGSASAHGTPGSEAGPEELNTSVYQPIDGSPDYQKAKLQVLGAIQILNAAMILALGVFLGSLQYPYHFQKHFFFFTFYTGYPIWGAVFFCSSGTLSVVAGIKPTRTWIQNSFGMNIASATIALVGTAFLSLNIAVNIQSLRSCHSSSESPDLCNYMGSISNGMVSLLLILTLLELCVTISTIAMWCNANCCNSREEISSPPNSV
# UniProt Q9BT17: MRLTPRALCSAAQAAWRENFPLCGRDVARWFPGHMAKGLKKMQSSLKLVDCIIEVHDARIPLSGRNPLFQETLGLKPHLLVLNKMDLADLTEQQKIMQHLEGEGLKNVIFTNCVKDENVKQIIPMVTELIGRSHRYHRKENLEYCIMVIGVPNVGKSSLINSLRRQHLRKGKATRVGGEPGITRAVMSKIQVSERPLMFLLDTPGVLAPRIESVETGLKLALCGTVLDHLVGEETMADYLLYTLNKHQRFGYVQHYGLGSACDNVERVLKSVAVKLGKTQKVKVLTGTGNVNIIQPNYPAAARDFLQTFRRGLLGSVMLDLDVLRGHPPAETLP
# The other results are listed elsewhere or left out.
# How the values were obtained:
# Test in all cases: log2 fold change, soluble protein after heating vs DMSO (PISA); higher = thermal stabilisation; K562 lysate, 10 uM; active = over 0.2 and 3.5 SD of the protein, either way, in both replicates (recomputed)
# ibrutinib = compound: C=CC(=O)N1CCC[C@@H](n2nc(-c3ccc(Oc4ccccc4)cc3)c3c(N)ncnc32)C1 [ibrutinib]
# Procedure, shortened: (§1)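 Values give the log-two fold change in thermal stability against solvent controls, from duplicates. Crude K562 extract at 1 mg/mL protein, made by dounce homogenisation in PBS pH 7.4 with 1 mM MgCl2, was treated with 10 μM compound for 30 min. After 3 min heating across 48°C-58°C, aliquots were pooled, adjusted to 0.5% NP-40 at 4°C and centrifuged at 21,000xg for 90 min. The supernatant was measured by TMTpro 16plex LC-MS/MS with channel sums equalised.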
# [1] = compound: CC(=O)c1cnc2ccc(-c3cc(Cl)c(O)c(Cl)c3)nc2c1N[C@H]1CC[C@H](CN(C)C)CC1
# Procedure, shortened: as §1
# ralimetinib = compound: CC(C)(C)Cn1c(N)nc2ccc(-c3[nH]c(C(C)(C)C)nc3-c3ccc(F)cc3)nc21 [ralimetinib]
# Procedure, shortened: as §1
# [2] = compound: CC(C)(O)CC(=O)NCCn1ccc2ncnc(Nc3ccc(Oc4cccc(C(F)(F)F)c4)c(Cl)c3)c21
# Procedure, shortened: as §1
# [3] = compound: CC(C)C1=C2N=C(C=C(N2N=C1)NCC3=CC=CC=C3)NCCCCCCN
# Procedure, shortened: as §1
# [4] = compound: CC1=C(C(CC(=O)N1)C2=CC=C(C=C2)C(F)(F)F)C(=O)NC3=C(C=C4C(=C3)C=NN4)F
# Procedure, shortened: as §1
# [5] = compound: CC1=C(C2=C(C=C1)C(=O)C3=CC=CC=C3N2CCCN)C
# Procedure, shortened: as §1
# [6] = compound: CC1=C(C=C(C=C1)NC(=O)C2=CC(=CC=C2)C(C)(C)C#N)NC3=CC4=C(C=C3)N=CN(C4=O)C
# Procedure, shortened: as §1
# [7] = compound: CC1=C(C=C(C=C1)NC(=O)C2=CC(=CC=C2)N(C)C)NC(=O)C3=CC=C(C=C3)O
# Procedure, shortened: as §1
# [8] = compound: CC1=CC=C(C=C1)SC2=C3C=C(SC3=CN=C2)C(=O)N
# Procedure, shortened: as §1
# vemurafenib = compound: CCCS(=O)(=O)Nc1ccc(F)c(C(=O)c2c[nH]c3ncc(-c4ccc(Cl)cc4)cc23)c1F [vemurafenib]
# Procedure, shortened: as §1
# [9] = compound: CCCS(=O)(=O)Nc1ccc(F)c(C(=O)c2c[nH]c3ncc(Cl)cc23)c1F
# Procedure, shortened: as §1
# barasertib = compound: CCN(CCCOc1ccc2c(Nc3cc(CC(=O)Nc4cccc(F)c4)[nH]n3)ncnc2c1)CCOP(=O)(O)O [barasertib]
# Procedure, shortened: as §1
# [10] = compound: CC[C@@H]1C(=O)N(C)c2cnc(Nc3ccc(C(=O)NC4CCN(C)CC4)cc3OC)nc2N1C1CCCC1
# Procedure, shortened: as §1
# volasertib = compound: CC[C@@H]1C(=O)N(C)c2cnc(Nc3ccc(C(=O)N[C@H]4CC[C@H](N5CCN(CC6CC6)CC5)CC4)cc3OC)nc2N1C(C)C [volasertib]
# Procedure, shortened: as §1
# [11] = compound: CCn1c(C(=O)N(C2CC2)C2CC2)cc2c3c(ncn3C)c(Nc3cc(C)n(C)n3)nc21
# Procedure, shortened: as §1
# [12] = compound: CCn1cc(-c2ccnc3[nH]c(-c4cccc(CN(C)C)c4)cc23)c(-c2ccc(NC(=O)N(C)C)cc2)n1
# Procedure, shortened: as §1
# [13] = compound: CN1CCC(CNc2ccc3ncc(-c4cccc(OC(F)(F)F)c4)n3n2)CC1
# Procedure, shortened: as §1
# saracatinib = compound: CN1CCN(CCOc2cc(OC3CCOCC3)c3c(Nc4c(Cl)ccc5c4OCO5)ncnc3c2)CC1 [saracatinib]
# Procedure, shortened: as §1
# sotrastaurin = compound: CN1CCN(c2nc(C3=C(c4c[nH]c5ccccc45)C(=O)NC3=O)c3ccccc3n2)CC1 [sotrastaurin]
# Procedure, shortened: as §1
Target,log2 fold change (ibrutinib),log2 fold change [1],log2 fold change (ralimetinib),log2 fold change [2],log2 fold change [3],log2 fold change [4],log2 fold change [5],log2 fold change [6],log2 fold change [7],log2 fold change [8],log2 fold change (vemurafenib),log2 fold change [9],log2 fold change (barasertib),log2 fold change [10],log2 fold change (volasertib),log2 fold change [11],log2 fold change [12],log2 fold change [13],log2 fold change (saracatinib),log2 fold change (sotrastaurin)
MSH2 (UniProt P43246),inactive: -0.009,inactive: -0.01,inactive: 0.019,inactive: 0.02,inactive: 0.019,inactive: -0.012,inactive: -0.014,inactive: 0,inactive: 0.037,inactive: 0.019,inactive: -0.014,inactive: 0.001,inactive: 0.007,inactive: -0.033,inactive: -0.068,inactive: 0.038,inactive: 0.003,inactive: -0.055,inactive: 0,inactive: 0.032
MRPS33 (UniProt Q9Y291),inactive: -0.043,inactive: 0.014,inactive: 0.028,inactive: -0.036,inactive: 0.05,inactive: -0.103,inactive: -0.06,inactive: -0.121,inactive: -0.023,inactive: 0.073,inactive: -0.005,inactive: 0.016,inactive: -0.025,inactive: -0.047,inactive: -0.028,inactive: -0.007,inactive: 0.035,inactive: -0.044,inactive: 0.043,inactive: -0.011
MTRF1L (UniProt Q9UGC7),inactive: 0.001,inactive: -0.007,inactive: -0.029,inactive: -0.021,inactive: -0.045,inactive: 0.053,inactive: -0.058,inactive: 0.025,inactive: -0.001,inactive: -0.051,inactive: 0.038,inactive: 0.034,inactive: -0.046,inactive: 0,inactive: 0.019,inactive: -0.056,inactive: -0.117,inactive: 0.025,inactive: 0.004,inactive: -0.037
MRPS22 (UniProt P82650),inactive: 0.017,inactive: -0.019,inactive: 0.012,inactive: -0.007,inactive: 0.039,inactive: 0.008,inactive: -0.097,inactive: 0.028,inactive: 0.037,inactive: 0.002,inactive: 0.077,inactive: 0.06,inactive: 0.068,inactive: -0.056,inactive: -0.038,inactive: -0.015,inactive: 0.013,inactive: -0.074,inactive: 0.006,inactive: 0.069
MRPL55 isoform 2 (UniProt Q7Z7F7),inactive: 0.081,inactive: 0.007,inactive: 0.009,inactive: 0.016,inactive: -0.035,inactive: -0.048,inactive: -0.034,inactive: 0.049,inactive: -0.046,inactive: -0.006,inactive: -0.069,inactive: 0.133,inactive: -0.019,inactive: 0.074,inactive: 0.063,inactive: -0.002,inactive: -0.003,inactive: 0.058,inactive: -0.071,inactive: -0.044
MRPL27 (UniProt Q9P0M9),inactive: -0.046,inactive: -0.057,inactive: 0.023,inactive: -0.025,inactive: 0.106,inactive: 0.002,inactive: -0.195,inactive: -0.028,inactive: 0.1,inactive: 0.079,–,inactive: -0.051,inactive: -0.01,inactive: 0.076,inactive: 0.017,inactive: -0.006,active: 0.926,inactive: -0.218,inactive: 0.009,inactive: 0.05
MT-ND4 (UniProt P03905),inactive: 0.119,inactive: -0.015,inactive: -0.017,inactive: -0.036,inactive: -0.019,inactive: 0.067,inactive: -0.13,inactive: 0.046,inactive: 0.038,inactive: 0.165,inactive: 0,inactive: -0.03,inactive: 0.042,inactive: 0.029,inactive: -0.04,inactive: 0.029,inactive: 0.083,inactive: 0.034,inactive: 0.081,inactive: -0.004
MTMR12 (UniProt Q9C0I1),inactive: 0.053,inactive: -0.01,inactive: 0.006,inactive: -0.019,inactive: -0.024,inactive: 0.039,inactive: -0.051,inactive: -0.025,inactive: -0.004,inactive: -0.027,inactive: 0.005,inactive: 0.041,inactive: 0.023,inactive: 0.01,inactive: 0.025,inactive: 0.01,inactive: -0.028,inactive: 0.019,inactive: 0.02,inactive: 0.058
MRPS15 (UniProt P82914),inactive: -0.053,inactive: -0.072,inactive: 0.039,inactive: -0.019,inactive: 0.032,inactive: 0.018,inactive: -0.152,inactive: 0.02,inactive: 0.048,inactive: -0.141,–,inactive: 0.036,inactive: 0.104,inactive: -0.039,inactive: -0.016,inactive: -0.048,inactive: -0.042,inactive: 0.007,inactive: 0.024,inactive: -0.016
MRPL41 (UniProt Q8IXM3),inactive: -0.02,inactive: 0.026,inactive: -0.005,inactive: 0,inactive: 0.013,inactive: 0.009,inactive: -0.075,inactive: -0.051,inactive: 0.021,inactive: 0.015,inactive: 0.018,inactive: 0.023,inactive: -0.04,inactive: 0.066,inactive: -0.042,inactive: -0.015,inactive: 0.035,inactive: -0.037,inactive: 0.041,inactive: -0.022
MTCL1 (UniProt Q9Y4B5),inactive: -0.112,inactive: -0.047,inactive: -0.171,inactive: -0.192,inactive: 0.032,–,inactive: -0.045,inactive: -0.002,inactive: 0.019,inactive: -0.008,inactive: 0.11,inactive: -0.035,inactive: 0.089,inactive: 0.055,inactive: -0.054,inactive: -0.079,–,–,inactive: 0.003,inactive: 0.041
MSH5 isoform 3 (UniProt O43196),–,inactive: 0.024,inactive: 0.243,inactive: -0.056,–,–,inactive: -0.192,inactive: 0.034,inactive: -0.275,inactive: -0.026,–,inactive: -0.109,–,inactive: -0.148,inactive: -0.067,inactive: 0.812,–,–,inactive: -0.063,inactive: 0.09
MS4A3 (UniProt Q96HJ5),–,inactive: -0.063,–,–,–,–,–,inactive: 0.214,–,inactive: -0.037,inactive: -0.06,inactive: 0.089,–,inactive: 0.036,inactive: 0.054,–,–,–,–,inactive: -0.031
MTG1 (UniProt Q9BT17),–,–,–,–,–,inactive: -0.297,–,–,–,–,–,–,–,–,–,–,inactive: 0.073,inactive: -0.036,–,–

# An excerpt of the results above:
Target,log2 fold change (ibrutinib),log2 fold change [1],log2 fold change (ralimetinib),log2 fold change [2],log2 fold change [3],log2 fold change [4],log2 fold change [5],log2 fold change [6],log2 fold change [7],log2 fold change [8],log2 fold change (vemurafenib),log2 fold change [9],log2 fold change (barasertib),log2 fold change [10],log2 fold change (volasertib),log2 fold change [11],log2 fold change [12],log2 fold change [13],log2 fold change (saracatinib),log2 fold change (sotrastaurin)
MRPL27 (UniProt Q9P0M9),inactive: -0.046,inactive: -0.057,inactive: 0.023,inactive: -0.025,inactive: 0.106,inactive: 0.002,inactive: -0.195,inactive: -0.028,inactive: 0.1,inactive: 0.079,–,inactive: -0.051,inactive: -0.01,inactive: 0.076,inactive: 0.017,inactive: -0.006,active: 0.926,inactive: -0.218,inactive: 0.009,inactive: 0.05
MT-ND4 (UniProt P03905),inactive: 0.119,inactive: -0.015,inactive: -0.017,inactive: -0.036,inactive: -0.019,inactive: 0.067,inactive: -0.13,inactive: 0.046,inactive: 0.038,inactive: 0.165,inactive: 0,inactive: -0.03,inactive: 0.042,inactive: 0.029,inactive: -0.04,inactive: 0.029,inactive: 0.083,inactive: 0.034,inactive: 0.081,inactive: -0.004
